Results as given in paper PMC4459675.
Results are given in words; binding and its absence hold for the method and conditions named. Binding seen in cells or lysates may run through a third protein. Some entries that bind do so weakly or less than the wild type. Blank lines part the entries; values can stand above or below the molecule they belong to.

By UniProt entry, the sequences of proteins in these tests, tags left out. Residues count along the entry.
UniProt P08648, residues 42-1049: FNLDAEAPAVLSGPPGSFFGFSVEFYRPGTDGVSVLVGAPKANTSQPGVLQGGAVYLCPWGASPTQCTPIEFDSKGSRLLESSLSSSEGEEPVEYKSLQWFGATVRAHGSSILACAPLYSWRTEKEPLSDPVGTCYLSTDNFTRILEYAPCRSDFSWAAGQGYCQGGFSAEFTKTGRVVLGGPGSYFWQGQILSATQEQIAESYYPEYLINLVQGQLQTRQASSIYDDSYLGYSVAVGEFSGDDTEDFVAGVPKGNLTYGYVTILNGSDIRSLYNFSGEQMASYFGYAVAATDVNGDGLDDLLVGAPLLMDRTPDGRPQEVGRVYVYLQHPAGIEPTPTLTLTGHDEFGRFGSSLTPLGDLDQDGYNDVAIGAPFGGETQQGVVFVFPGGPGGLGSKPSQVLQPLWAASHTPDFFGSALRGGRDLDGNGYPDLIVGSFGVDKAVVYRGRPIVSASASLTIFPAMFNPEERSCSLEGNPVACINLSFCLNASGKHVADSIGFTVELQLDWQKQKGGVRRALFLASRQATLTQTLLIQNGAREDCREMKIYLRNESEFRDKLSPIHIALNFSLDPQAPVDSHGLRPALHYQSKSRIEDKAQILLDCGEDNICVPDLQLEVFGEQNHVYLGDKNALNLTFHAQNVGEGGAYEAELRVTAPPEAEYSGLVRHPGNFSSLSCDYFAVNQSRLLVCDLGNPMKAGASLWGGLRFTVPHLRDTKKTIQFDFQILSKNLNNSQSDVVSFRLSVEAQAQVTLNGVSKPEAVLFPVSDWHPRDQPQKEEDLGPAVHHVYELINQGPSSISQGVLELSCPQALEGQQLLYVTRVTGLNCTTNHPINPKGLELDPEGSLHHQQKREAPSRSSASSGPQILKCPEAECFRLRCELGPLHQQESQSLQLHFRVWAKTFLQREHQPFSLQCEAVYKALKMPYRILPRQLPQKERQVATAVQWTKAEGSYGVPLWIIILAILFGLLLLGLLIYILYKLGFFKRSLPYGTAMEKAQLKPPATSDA
UniProt O15551: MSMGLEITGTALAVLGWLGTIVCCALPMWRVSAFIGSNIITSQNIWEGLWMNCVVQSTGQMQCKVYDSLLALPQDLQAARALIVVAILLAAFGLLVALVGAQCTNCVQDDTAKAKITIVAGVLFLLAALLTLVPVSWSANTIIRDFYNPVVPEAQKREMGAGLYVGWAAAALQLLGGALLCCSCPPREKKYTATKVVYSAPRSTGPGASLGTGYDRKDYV
UniProt P15311: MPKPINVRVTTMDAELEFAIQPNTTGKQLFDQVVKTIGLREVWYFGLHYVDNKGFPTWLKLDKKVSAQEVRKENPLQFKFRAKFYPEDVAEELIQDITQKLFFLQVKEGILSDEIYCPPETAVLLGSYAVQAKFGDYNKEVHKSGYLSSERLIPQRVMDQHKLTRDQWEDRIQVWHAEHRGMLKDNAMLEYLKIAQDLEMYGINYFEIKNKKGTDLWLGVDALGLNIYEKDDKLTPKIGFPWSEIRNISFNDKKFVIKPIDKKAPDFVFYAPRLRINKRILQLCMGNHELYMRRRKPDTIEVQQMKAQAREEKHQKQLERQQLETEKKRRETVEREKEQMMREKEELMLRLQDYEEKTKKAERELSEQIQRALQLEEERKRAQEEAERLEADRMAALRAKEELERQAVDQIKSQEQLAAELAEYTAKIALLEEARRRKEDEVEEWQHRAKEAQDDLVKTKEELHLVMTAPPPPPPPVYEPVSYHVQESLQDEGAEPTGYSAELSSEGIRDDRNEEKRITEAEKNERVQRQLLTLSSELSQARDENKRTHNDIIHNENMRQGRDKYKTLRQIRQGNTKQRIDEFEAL

Experiments:
Assay in all cases: co-IP; whole lysates of transfected HEK cells (30 min, 4°C, HEPES buffer, 1% Lubrol or 1% TritonX-100); antibody 1 h 4°C, ProteinG-Sepharose 1 h; Western blot
[1] = target: ZO-1 (human (endogenous in HEK293)) (UniProt Q07157)
[2] = target: CD49e (human (endogenous in HEK293)) (UniProt P08648)
[3] = target: T1, CD166 (human (endogenous in HEK293)) (UniProt Q13740)
T1 sequence: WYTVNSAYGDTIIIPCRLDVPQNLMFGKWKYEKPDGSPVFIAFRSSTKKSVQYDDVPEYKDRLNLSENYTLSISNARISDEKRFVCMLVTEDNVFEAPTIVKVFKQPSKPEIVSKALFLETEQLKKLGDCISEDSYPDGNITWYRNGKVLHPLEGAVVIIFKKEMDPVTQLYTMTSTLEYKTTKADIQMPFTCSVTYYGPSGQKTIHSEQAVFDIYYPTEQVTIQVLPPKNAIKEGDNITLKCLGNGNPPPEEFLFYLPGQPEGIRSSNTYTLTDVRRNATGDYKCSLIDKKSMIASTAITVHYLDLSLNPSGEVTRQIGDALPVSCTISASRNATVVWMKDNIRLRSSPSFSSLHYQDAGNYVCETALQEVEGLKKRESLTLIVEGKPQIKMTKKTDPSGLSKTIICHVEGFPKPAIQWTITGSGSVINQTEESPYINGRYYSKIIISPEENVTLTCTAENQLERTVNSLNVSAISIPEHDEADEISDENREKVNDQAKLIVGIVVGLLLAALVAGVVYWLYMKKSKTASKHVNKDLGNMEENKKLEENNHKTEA

[4] = target: T2, ZO-1 (human (endogenous in HEK293)), Q07157; conditions: remark: other sources report otherwise
T2 chain: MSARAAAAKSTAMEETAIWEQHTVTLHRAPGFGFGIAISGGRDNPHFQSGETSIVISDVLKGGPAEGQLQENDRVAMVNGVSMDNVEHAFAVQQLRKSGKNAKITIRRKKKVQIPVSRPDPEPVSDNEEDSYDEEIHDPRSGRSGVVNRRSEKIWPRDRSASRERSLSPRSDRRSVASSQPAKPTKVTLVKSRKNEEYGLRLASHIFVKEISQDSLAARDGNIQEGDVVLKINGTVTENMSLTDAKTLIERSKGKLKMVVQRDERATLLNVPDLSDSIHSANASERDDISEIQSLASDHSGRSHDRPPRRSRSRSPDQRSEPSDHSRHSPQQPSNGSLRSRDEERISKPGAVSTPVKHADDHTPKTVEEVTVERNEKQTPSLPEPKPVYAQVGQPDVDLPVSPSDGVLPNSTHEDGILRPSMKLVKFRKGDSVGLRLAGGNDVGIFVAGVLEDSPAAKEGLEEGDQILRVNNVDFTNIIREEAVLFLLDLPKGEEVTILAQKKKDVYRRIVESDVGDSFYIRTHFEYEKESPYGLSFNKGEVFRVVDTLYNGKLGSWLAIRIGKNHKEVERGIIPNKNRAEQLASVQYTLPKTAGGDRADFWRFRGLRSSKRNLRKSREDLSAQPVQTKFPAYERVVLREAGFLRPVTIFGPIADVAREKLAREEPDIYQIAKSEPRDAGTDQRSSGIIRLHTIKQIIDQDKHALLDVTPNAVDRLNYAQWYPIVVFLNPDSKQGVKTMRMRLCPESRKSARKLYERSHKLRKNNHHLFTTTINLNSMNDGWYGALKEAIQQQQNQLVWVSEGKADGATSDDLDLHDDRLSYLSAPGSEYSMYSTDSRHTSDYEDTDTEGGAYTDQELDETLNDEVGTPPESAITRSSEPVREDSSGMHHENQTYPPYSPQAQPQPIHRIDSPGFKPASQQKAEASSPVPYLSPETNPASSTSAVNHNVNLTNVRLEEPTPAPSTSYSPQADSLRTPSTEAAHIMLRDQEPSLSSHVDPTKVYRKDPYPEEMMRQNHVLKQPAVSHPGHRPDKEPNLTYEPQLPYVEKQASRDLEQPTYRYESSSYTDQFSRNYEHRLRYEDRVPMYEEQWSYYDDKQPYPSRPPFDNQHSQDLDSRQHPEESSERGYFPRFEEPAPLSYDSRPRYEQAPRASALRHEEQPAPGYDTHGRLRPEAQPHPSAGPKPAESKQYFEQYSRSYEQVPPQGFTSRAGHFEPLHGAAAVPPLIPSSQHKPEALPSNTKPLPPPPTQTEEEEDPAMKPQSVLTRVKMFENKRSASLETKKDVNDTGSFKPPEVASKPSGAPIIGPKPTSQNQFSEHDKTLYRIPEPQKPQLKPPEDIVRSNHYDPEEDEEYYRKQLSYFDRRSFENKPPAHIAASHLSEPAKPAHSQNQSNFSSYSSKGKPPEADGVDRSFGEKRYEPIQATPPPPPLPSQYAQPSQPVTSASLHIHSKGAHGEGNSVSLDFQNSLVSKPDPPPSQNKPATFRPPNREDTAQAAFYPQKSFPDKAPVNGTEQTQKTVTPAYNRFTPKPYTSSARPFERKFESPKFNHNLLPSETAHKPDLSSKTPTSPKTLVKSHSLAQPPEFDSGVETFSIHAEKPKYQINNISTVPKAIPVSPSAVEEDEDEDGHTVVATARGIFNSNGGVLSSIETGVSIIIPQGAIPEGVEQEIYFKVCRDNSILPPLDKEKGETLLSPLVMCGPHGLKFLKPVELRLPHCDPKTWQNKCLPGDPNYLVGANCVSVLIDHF

binding [1]: binds
Molecule: cld3 (from UniProt O15551 1-220)

binding [2]: binds | binding [3]: binds
Molecule: ezrin (from UniProt P15311 1-586)

binding [4]: binds
B1: cld4, O14493 1-209 (protein)
chain: MASMGLQVMGIALAVLGWLAVMLCCALPMWRVTAFIGSNIVTSQTIWEGLWMNCVVQSTGQMQCKVYDSLLALPQDLQAARALVIISIIVAALGVLLSVVGGKCTNCLEDESAKAKTMIVAGVVFLLAGLMVIVPVSWTAHNIIQDFYNPLVASGQKREMGASLYVGWAASGLLLLGGGLLCCNCPPRTDKPYSAKYSAARSAAASNYV
